Measurements reported in PMC6057013.
These are yes or no findings as the source states them, for the method shown. Binding seen in cells or lysates may run through a third protein. Some results given as binding are weak or reduced against the parent protein; the word gives no strength. For part of these data: Sequences can lack the tags named with a protein. Blank lines part the entries; values can stand above or below the molecule they belong to.

Amino acid sequences for entries named in this document (tags omitted).
UniProt P35222: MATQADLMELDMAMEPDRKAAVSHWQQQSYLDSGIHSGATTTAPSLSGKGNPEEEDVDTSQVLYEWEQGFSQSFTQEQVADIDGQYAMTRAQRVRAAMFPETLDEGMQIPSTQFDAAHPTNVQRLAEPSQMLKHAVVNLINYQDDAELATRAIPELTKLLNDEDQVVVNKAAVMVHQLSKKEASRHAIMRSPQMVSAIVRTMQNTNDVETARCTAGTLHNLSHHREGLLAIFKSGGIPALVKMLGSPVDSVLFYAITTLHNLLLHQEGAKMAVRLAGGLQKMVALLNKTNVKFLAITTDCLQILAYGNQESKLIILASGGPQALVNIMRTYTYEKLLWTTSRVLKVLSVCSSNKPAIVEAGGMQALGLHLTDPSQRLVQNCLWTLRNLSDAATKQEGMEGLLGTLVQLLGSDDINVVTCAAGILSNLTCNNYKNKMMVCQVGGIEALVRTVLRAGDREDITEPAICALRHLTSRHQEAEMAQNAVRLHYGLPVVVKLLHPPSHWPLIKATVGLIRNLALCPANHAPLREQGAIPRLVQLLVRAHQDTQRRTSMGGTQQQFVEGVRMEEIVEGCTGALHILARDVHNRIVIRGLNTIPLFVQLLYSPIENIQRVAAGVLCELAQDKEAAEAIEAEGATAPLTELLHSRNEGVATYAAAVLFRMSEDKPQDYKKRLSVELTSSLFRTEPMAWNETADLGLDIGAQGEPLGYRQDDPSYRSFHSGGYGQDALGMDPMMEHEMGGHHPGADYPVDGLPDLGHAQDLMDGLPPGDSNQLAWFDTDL

Experiments:
[1] = target: T1, endogenous Hakai (human (endogenous in BEL7402)) (UniProt Q75N03); test: co-IP; endogenous proteins; BEL7402 cells grown in 10 cm^2 dishes, cell lysates subjected to IP
T1 sequence: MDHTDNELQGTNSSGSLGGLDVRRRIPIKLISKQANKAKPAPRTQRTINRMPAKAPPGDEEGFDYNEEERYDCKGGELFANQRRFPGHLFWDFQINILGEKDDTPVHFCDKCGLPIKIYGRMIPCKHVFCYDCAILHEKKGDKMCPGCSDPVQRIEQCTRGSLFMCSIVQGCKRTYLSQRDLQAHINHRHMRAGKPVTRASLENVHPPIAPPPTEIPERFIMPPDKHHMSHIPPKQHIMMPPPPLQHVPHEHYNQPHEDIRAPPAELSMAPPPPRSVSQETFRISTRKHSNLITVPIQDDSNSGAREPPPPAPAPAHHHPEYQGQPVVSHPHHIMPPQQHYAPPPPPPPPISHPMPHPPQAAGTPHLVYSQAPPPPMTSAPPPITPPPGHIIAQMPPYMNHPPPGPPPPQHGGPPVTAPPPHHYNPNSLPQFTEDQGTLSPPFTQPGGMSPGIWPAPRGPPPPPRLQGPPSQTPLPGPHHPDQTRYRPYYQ

[2] = target: endogenous β-catenin (human (endogenous in BEL7402)) (UniProt P35222); test: co-IP; BEL7402 cells transfected with wild-type Hakai or its deletion mutants; endogenous β-catenin
[3] = target: GFP-tagged β-Catenin (UniProt P35222); test: co-IP; 293T cells transfected with tagged constructs; cell lysates immunoprecipitated with anti-Myc-tag or anti-GFP-tag antibody and immunoblotted

binding [1]: binds
Molecule: endogenous β-catenin (from UniProt P35222 1-781)

binding [2]: binds
B1: wild-type Hakai (WT), transfected in BEL7402 cells (protein, UniProt Q75N03 1-491)
chain: T1 sequence

binding [3]: binds
B2: Myc-tagged Hakai (protein, UniProt Q75N03 1-491)
chain: T1 sequence
